Results are given in words; binding and its absence hold for the method and conditions named. In cells and extracts the contact can be indirect. Here binding means that the protein was enriched with, or labelled near, the bait; the list need not be complete.
B1: Rv1265 (protein, UniProt P9WM49 1-226)
chain: MVLARPDAVFAPARNRCHVSLPVNAMSLKMKVCNHVIMRHHHMHGRRYGRPGGWQQAQQPDASGAAEWFAGRLPEDWFDGDPTVIVDREEITVIGKLPGLESPEEESAARASGRVSRFRDETRPERMTIADEAQNRYGRKVSWGVEVGGERILFTHIAVPVMTRLKQPERQVLDTLVDAGVARSRSDALAWSVKLVGEHTEEWLAKLRTAMSAVDDLRAQGPDLPA
B2: CtpC (protein, UniProt P9WPT5 1-718)
chain: MTLEVVSDAAGRMRVKVDWVRCDSRRAVAVEEAVAKQNGVRVVHAYPRTGSVVVWYSPRRADRAAVLAAIKGAAHVAAELIPARAPHSAEIRNTDVLRMVIGGVALALLGVRRYVFARPPLLGTTGRTVATGVTIFTGYPFLRGALRSLRSGKAGTDALVSAATVASLILRENVVALTVLWLLNIGEYLQDLTLRRTRRAISELLRGNQDTAWVRLTDPSAGSDAATEIQVPIDTVQIGDEVVVHEHVAIPVDGEVVDGEAIVNQSAITGENLPVSVVVGTRVHAGSVVVRGRVVVRAHAVGNQTTIGRIISRVEEAQLDRAPIQTVGENFSRRFVPTSFIVSAIALLITGDVRRAMTMLLIACPCAVGLSTPTAISAAIGNGARRGILIKGGSHLEQAGRVDAIVFDKTGTLTVGRPVVTNIVAMHKDWEPEQVLAYAASSEIHSRHPLAEAVIRSTEERRISIPPHEECEVLVGLGMRTWADGRTLLLGSPSLLRAEKVRVSKKASEWVDKLRRQAETPLLLAVDGTLVGLISLRDEVRPEAAQVLTKLRANGIRRIVMLTGDHPEIAQVVADELGIDEWRAEVMPEDKLAAVRELQDDGYVVGMVGDGINDAPALAAADIGIAMGLAGTDVAVETADVALANDDLHRLLDVGDLGERAVDVIRQNYGMSIAVNAAGLLIGAGGALSPVLAAILHNASSVAVVANSSRLIRYRLDR
B3: MoeX (protein, UniProt A5U339 1-330)
chain: MIIELMRRVVGLAQGATAEVAVYGDRDRDLAERWCANTGNTLVRADVDQTGVGTLVVRRGHPPDPASVLGPDRLPGVRLWLYTNFHCNLCCDYCCVSSSPSTPHRELGAERIGRIVGEAARWGVRELFLTGGEPFLLPDIDTIIATCVKQLPTTVLTNGMVFKGRGRRALESLPRGLALQISLDSATPELHDAHRGAGTWVKAVAGIRLALSLGFRVRVAATVASPAPGELTAFHDFLDGLGIAPGDQLVRPIALEGAASQGVALTRESLVPEVTVTADGVYWHPVAATDERALVTRTVEPLTPALDMVSRLFAEQWTRAAEEAALFPCA
B4: Rv2083 (protein, UniProt P9WLK3 1-314)
chain: MTSIESHPEQYWAAAGRPGPVPLALGPVHPGGPTLIDLLMALFGLSTNADLGGANADIEGDDTDRRAHAADAARKFSANEANAAEQMQGVGAQGMAQMASGIGGALSGALGGVMGPLTQLPQQAMQAGQGAMQPLMSAMQQAQGADGLAAVDGARLLDSIGGEPGLGSGAGGGDVGGGGAGGTTPTGYLGPPPVPTSSPPTTPAGAPTKSATMPPPGGASPASAHMGAAGMPMVPPGAMGARGEGSGQEKPVEKRLTAPAVPNGQPVKGRLTVPPSAPTTKPTDGKPVVRRRILLPEHKDFGRIAPDEKTDAGE
B5: AhpC (protein, UniProt P9WQB7 1-195)
chain: MPLLTIGDQFPAYQLTALIGGDLSKVDAKQPGDYFTTITSDEHPGKWRVVFFWPKDFTFVCPTEIAAFSKLNDEFEDRDAQILGVSIDSEFAHFQWRAQHNDLKTLPFPMLSDIKRELSQAAGVLNADGVADRVTFIVDPNNEIQFVSATAGSVGRNVDEVLRVLDALQSDELCACNWRKGDPTLDAGELLKASA

Molecular target: PacL1 fused to a C-terminal ALFA tag (M. tuberculosis H37Rv) (UniProt P96874)
Test: proximity labelling

PPE20 (from UniProt P9WI22 1-539) was tested. Which binding did it give?
Its binding is “binds”.

Which binding does the source give for B1 here?
Its binding is “binds”.

For B2, which binding is on record?
Its binding is “binds”.

With B3 as the molecule, how does the binding read?
The binding was “binds”.

For B4, which binding is on record?
Its binding is “binds”.

With B5 as the molecule, how does the binding read?
Its binding is “binds”.

Molecular target: PacL1 with an internal ALFA tag (M. tuberculosis H37Rv)
Test: proximity labelling

Which binding does the source give for B1 here?
The binding was “binds”.

B2 was tested. Which binding did it give?
The binding was “binds”.

With B3 as the molecule, how does the binding read?
The binding was “binds”.

Which binding does the source give for B4 here?
Its binding is “binds”.

How did the binding turn out when B5 was run?
Its binding is “binds”.
